No constants are given. Whether binding was seen depends on the method and setting. In cells and extracts the contact can be indirect. For some of these results: Tags and fused reporters may be left off the sequences shown.
Assays:
Test in all cases: pull-down; T7-Irc22 co-expressed with GST fusions in wild-type yeast; cell extracts incubated with glutathione-Sepharose 4B in lysis buffer (20 mM HEPES pH 7.5, 100 mM NaCl, 0.5% Nonidet P-40, 1 mM EDTA) for 1 h at 4 °C, three washes; immunoblot with anti-T7
[1] = molecular target: Dsk2 UBA domain alone (328-373) (S. cerevisiae) (UniProt P48510)
[2] = molecular target: T1, GST-Ddi1, expressed in yeast (S. cerevisiae) (UniProt P40087)
T1 sequence: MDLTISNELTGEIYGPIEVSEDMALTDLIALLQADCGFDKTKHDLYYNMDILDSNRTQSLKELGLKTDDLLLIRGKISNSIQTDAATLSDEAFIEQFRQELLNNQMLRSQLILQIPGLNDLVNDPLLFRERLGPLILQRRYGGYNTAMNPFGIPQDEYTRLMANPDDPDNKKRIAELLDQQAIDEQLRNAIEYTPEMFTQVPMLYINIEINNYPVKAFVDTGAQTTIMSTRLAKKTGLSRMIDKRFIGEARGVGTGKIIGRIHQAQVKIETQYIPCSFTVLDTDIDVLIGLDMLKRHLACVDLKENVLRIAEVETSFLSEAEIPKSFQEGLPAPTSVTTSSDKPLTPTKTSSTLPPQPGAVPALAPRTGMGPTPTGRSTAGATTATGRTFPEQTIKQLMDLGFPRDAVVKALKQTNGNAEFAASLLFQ

[3] = molecular target: T2, GST-Rad23, expressed in yeast (S. cerevisiae) (UniProt P32628)
T2 sequence: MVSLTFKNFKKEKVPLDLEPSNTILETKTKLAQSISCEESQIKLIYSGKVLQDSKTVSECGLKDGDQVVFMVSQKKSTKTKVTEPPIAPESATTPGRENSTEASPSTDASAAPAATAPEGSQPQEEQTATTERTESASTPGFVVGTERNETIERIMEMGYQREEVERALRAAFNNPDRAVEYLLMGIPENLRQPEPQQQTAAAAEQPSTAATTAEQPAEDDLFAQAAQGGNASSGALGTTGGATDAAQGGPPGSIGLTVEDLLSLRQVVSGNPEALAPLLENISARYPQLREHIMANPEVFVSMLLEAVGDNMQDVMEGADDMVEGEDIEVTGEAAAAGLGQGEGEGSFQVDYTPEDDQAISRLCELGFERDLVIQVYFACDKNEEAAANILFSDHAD

[4] = molecular target: T3, Dsk2 middle stretch alone (78-335) (S. cerevisiae) (UniProt P48510)
T3 sequence: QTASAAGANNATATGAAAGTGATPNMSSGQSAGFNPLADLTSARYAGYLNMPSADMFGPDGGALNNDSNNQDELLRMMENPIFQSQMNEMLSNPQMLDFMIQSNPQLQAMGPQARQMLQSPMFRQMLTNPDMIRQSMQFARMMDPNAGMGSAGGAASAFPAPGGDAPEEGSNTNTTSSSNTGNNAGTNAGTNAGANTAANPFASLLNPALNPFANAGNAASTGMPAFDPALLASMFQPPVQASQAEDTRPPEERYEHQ

Measured: binding

B1: T7-Irc22 (protein, UniProt P40006 25-225)
chain: NNSDNVEHEQEVAEAVAPPSINIEVKYDVVGKESENHDSFLEFYAEDTATLAYNVTNWEDTNITIFGVNGTIVTYPHGYPVADITGASIGPYEMEVNGTSKFGQDVTLNLPEGQYFLIPFLLASRFDEIVRIAAPPTLFEIVSPPISFFNPQFLSVQVIFLAIIGGVSYYYMKSKTNQRPSKKSATVKKVDESWLPETYKK
no binding: all assays above

From PMC4092868
